Some of the results follow. Residues, ends and D or L forms follow the SMILES beside them. *: point of attachment. Cbz = O=C(OCc1ccccc1)*
Experiments:
Experiment in all cases: log2 fold change, soluble protein after heating vs DMSO (PISA); higher = thermal stabilisation; K562 cells, 10 uM, 30 min; active = over 0.2 and 3.5 SD of the protein, either way, in both replicates (recomputed)
[1] = compound: C#Cc1cccc(Nc2ncnc3cc(OCCOC)c(OCCOC)cc23)c1 [erlotinib]
Procedure, shortened: (§1)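 Thermal stability values are relative to control samples and come from duplicates. They are expressed as log2 fold changes. For measurement, K562 cells (2×10^6 cells/mL) received 10 μM compound for 30 min, and aliquots were heated for 3 min over 48°C-58°C, pooled, and extracted at 4°C in PBS with 0.5% NP-40. Soluble protein, the supernatant after 21,000xg for 90 min, was quantified by TMTpro 16plex LC-MS/MS with equalised channel sums.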

Amino acid sequences for entries named in this document (tags omitted). A change or cut given only in a name is not applied to a line headed by its entry.
UniProt P22570: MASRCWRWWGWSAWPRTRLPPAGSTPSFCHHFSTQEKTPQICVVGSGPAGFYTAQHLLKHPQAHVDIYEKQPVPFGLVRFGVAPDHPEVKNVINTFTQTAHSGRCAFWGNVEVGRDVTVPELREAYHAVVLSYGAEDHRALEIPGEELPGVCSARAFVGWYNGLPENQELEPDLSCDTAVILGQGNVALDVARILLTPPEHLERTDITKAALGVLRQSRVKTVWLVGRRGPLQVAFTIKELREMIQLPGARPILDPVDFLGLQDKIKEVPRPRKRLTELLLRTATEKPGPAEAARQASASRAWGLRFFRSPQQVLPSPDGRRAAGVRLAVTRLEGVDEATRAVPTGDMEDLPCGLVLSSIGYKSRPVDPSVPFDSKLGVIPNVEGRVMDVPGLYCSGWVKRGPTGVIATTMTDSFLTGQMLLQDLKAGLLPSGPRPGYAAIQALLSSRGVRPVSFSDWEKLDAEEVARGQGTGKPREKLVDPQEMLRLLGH
UniProt Q13643: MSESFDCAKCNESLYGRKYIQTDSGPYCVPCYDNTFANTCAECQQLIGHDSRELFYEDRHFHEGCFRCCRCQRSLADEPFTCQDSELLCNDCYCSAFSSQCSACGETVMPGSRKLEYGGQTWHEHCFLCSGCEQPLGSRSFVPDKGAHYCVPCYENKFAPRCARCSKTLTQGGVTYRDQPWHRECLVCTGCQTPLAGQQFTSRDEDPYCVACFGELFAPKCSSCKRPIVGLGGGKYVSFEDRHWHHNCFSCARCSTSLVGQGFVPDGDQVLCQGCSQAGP
UniProt Q9Y5Y0: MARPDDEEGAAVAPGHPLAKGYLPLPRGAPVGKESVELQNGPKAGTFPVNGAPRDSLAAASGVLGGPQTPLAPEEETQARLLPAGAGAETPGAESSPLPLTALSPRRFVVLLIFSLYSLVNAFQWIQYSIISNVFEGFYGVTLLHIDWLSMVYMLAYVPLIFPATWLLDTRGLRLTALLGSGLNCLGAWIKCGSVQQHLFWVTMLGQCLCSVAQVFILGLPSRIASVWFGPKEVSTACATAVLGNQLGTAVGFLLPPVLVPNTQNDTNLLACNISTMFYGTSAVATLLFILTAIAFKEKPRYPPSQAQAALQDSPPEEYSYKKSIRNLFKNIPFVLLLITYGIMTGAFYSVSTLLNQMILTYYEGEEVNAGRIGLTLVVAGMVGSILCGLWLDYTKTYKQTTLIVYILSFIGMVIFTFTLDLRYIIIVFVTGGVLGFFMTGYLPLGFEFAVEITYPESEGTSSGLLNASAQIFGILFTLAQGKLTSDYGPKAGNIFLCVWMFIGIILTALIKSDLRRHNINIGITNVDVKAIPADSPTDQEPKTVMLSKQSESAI
UniProt Q9UIM3: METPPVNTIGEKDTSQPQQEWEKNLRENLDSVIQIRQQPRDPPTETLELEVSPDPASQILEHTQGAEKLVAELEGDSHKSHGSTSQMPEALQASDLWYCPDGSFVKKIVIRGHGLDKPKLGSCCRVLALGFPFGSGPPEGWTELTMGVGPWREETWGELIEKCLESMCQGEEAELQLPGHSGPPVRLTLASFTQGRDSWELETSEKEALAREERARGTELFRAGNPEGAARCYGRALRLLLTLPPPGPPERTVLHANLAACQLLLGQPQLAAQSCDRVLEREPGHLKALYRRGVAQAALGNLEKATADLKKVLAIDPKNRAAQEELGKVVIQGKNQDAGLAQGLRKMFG
UniProt P22830: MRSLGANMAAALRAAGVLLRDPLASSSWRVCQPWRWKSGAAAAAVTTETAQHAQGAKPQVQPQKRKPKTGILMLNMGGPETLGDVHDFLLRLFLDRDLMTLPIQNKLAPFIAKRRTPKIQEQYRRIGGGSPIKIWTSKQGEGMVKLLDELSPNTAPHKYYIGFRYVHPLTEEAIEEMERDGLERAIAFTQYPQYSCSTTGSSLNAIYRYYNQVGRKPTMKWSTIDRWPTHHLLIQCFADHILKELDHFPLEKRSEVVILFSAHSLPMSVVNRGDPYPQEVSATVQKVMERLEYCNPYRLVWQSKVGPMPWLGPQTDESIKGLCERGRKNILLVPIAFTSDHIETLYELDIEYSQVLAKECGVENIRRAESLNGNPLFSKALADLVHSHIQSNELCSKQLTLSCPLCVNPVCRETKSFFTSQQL
UniProt Q9Y3D6: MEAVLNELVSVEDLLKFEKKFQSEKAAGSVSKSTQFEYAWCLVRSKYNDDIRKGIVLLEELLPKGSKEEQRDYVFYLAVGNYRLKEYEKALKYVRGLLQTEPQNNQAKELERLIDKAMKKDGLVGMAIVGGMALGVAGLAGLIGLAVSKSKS
UniProt Q8WVX9: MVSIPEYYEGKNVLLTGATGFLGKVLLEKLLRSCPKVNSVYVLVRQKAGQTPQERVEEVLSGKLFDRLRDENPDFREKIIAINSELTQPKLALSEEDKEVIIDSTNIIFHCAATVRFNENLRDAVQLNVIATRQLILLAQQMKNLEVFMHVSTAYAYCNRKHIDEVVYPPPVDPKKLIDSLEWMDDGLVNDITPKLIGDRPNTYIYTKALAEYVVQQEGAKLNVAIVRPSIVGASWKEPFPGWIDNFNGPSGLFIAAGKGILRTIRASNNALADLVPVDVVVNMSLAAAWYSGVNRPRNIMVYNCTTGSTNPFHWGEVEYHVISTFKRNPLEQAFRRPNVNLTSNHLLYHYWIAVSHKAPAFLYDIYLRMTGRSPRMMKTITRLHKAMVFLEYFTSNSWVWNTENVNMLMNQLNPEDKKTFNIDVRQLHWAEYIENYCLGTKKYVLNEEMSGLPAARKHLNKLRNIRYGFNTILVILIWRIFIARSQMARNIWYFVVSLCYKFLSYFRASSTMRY
UniProt Q5XUX1: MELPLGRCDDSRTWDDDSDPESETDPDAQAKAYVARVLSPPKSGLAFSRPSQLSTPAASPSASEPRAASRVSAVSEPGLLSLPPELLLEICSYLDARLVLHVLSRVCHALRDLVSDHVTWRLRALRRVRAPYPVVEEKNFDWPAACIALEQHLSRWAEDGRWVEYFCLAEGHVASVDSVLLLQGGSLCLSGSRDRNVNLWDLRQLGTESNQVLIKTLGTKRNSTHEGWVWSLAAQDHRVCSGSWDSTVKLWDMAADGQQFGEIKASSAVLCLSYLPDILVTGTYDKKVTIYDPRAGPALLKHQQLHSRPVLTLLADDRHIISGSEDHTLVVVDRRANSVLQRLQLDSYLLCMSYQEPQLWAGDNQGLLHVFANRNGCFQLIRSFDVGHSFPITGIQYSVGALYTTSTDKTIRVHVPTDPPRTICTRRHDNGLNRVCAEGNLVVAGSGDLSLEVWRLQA
UniProt P07954: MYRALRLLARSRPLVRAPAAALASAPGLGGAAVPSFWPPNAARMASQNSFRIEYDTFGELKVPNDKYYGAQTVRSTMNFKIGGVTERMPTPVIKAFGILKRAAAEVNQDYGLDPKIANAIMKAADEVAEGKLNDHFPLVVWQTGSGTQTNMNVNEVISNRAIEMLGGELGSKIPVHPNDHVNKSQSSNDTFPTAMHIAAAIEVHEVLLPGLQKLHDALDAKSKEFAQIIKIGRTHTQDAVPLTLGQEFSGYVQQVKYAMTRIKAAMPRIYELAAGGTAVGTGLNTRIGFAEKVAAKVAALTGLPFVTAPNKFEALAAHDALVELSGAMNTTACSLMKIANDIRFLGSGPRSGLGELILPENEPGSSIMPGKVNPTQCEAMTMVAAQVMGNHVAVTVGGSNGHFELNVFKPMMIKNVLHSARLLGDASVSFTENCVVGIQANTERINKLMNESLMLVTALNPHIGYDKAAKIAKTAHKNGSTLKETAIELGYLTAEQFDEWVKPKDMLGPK
UniProt P02675: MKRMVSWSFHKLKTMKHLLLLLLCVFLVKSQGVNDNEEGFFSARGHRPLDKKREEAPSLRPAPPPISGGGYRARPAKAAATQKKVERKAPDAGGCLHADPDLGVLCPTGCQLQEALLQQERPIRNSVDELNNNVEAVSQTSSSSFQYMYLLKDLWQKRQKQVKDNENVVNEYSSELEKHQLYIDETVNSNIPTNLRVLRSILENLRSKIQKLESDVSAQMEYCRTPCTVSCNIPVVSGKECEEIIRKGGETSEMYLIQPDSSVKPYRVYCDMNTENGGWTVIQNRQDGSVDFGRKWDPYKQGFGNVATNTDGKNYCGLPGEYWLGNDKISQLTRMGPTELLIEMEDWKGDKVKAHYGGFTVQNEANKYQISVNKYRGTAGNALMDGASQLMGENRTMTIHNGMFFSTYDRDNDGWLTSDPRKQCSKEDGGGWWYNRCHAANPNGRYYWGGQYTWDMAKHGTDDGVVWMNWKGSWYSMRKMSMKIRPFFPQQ
UniProt Q8WU58: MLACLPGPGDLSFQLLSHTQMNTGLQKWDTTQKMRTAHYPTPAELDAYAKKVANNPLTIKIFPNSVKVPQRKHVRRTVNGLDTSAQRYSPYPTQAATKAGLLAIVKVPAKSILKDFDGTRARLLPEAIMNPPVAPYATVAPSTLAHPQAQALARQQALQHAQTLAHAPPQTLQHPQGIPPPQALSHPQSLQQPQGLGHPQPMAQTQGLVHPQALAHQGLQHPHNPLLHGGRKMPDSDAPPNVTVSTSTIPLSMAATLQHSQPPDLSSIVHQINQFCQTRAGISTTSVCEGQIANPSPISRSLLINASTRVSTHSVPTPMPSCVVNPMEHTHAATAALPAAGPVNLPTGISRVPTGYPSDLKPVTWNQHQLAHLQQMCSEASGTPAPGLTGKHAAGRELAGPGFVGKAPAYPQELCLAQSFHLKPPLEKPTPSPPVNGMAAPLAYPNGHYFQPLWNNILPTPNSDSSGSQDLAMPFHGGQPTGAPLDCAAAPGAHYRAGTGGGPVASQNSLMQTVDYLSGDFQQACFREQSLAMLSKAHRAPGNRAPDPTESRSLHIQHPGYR
UniProt Q13642: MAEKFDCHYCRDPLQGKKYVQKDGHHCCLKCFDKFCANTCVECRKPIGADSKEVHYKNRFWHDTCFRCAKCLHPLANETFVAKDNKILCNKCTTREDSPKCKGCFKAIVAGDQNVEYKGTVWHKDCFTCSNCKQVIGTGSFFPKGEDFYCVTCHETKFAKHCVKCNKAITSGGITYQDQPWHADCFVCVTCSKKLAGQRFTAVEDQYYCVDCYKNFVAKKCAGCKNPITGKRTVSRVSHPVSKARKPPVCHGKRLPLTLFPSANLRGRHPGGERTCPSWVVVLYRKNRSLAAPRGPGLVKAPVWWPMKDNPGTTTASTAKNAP
UniProt Q86WN1: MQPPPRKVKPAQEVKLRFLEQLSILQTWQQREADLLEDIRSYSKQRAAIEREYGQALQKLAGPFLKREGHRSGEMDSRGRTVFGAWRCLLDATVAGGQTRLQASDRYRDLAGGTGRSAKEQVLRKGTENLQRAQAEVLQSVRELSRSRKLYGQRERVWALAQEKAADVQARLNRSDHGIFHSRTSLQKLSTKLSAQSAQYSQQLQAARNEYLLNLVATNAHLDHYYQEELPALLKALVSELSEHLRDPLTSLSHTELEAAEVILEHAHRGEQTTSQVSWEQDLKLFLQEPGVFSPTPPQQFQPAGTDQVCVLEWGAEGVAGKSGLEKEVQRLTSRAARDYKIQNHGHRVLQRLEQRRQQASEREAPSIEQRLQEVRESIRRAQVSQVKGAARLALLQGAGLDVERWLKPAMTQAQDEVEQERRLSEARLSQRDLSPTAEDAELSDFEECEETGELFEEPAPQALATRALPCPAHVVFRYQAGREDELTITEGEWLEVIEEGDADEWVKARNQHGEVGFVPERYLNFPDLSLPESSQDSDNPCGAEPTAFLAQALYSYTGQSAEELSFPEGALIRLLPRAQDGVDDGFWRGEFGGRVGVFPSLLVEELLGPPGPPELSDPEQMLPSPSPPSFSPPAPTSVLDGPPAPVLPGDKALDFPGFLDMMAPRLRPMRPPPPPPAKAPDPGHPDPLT
UniProt O43427: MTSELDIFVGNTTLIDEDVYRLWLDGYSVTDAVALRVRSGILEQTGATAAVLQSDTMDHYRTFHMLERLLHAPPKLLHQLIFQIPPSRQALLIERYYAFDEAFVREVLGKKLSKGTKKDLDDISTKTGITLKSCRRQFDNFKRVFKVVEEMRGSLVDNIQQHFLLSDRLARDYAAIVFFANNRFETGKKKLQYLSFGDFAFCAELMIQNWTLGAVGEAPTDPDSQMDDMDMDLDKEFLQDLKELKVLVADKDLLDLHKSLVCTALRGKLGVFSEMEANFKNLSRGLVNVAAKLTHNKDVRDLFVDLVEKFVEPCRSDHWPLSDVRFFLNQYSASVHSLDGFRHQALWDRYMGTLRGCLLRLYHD
UniProt Q9NWM8: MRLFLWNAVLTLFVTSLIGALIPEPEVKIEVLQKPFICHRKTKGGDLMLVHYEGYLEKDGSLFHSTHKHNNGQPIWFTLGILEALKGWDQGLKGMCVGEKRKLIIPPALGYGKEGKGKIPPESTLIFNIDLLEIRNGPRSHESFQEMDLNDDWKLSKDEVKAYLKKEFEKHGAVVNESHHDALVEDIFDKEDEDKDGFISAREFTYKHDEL

[2] = compound: C/C(=N\NC(=O)C1=CC(=CC=C1)S(=O)(=O)N2CCOCC2)/C3=C(C=CC(=C3)Cl)O
Procedure, shortened: as §1

[3] = compound: C1=CC(=C(C=C1Cl)C2=NC3=NC=CN=C3C(=N2)NC4=CC=NC=C4)F
Procedure, shortened: as §1

[4] = compound: C1=CC(=CC=C1C2=NC3=C(N2)C=C(C=C3)C(=O)N)OC4=CC=C(C=C4)Cl
Procedure, shortened: as §1

[5] = compound: C1=CC2=C(C=CC(=C2)/C=C\3/C(=O)NC(=NCC4=CC=CS4)S3)N=C1
Procedure, shortened: as §1

[6] = compound: C1=CC2=NC=CN=C2C=C1/C=C/3\C(=O)NC(=O)S3
Procedure, shortened: as §1

[7] = compound: C1=CC=C(C=C1)C2=NC(=C(N2)C3=CC=NC=C3)C4=CC(=C(C=C4)Cl)O
Procedure, shortened: as §1

[8] = compound: C1=CC=C2C(=C1)C3=NNC4=CC=CC(=C43)C2=O
Procedure, shortened: as §1

[9] = compound: C1CCN(C1)C(=O)NC2=CC=CC(=C2)NC3=NC=C(C(=N3)NCCC4=CN=CN4)Br
Procedure, shortened: as §1

[10] = compound: C1CN(CCC1(CC2=CC=C(C=C2)Cl)N)C3=NC=NC4=C3C=CN4
Procedure, shortened: as §1

[11] = compound: C1COCCN1CCN2C3=CC=CC=C3N=C2NC(=O)C4=CC(=CC=C4)[N+](=O)[O-] [IRAK-1-4 Inhibitor I]
Procedure, shortened: as §1

[12] = compound: C=CC(=O)N1CCC[C@@H](n2nc(-c3ccc(Oc4ccccc4)cc3)c3c(N)ncnc32)C1 [ibrutinib]
Procedure, shortened: as §1

[13] = compound: CC(=O)c1cnc2ccc(-c3cc(Cl)c(O)c(Cl)c3)nc2c1N[C@H]1CC[C@H](CN(C)C)CC1
Procedure, shortened: as §1

[14] = compound: CC(C)(C)Cn1c(N)nc2ccc(-c3[nH]c(C(C)(C)C)nc3-c3ccc(F)cc3)nc21 [ralimetinib]
Procedure, shortened: as §1

[15] = compound: CC(C)(O)CC(=O)NCCn1ccc2ncnc(Nc3ccc(Oc4cccc(C(F)(F)F)c4)c(Cl)c3)c21
Procedure, shortened: as §1

[16] = compound: CC(C)C1=C2N=C(C=C(N2N=C1)NCC3=CC=CC=C3)NCCCCCCN
Procedure, shortened: as §1

[17] = compound: CC(C)C[C@@H](C=O)NC(=O)[C@H](CC(C)C)NC(=O)[C@H](CC(C)C)NC(=O)OCc1ccccc1
Procedure, shortened: as §1

[18] = compound: CC(C)N(C[C@H]1O[C@@H](n2cnc3c(N)ncnc32)[C@H](O)[C@@H]1O)[C@H]1C[C@@H](CCc2nc3cc(C(C)(C)C)ccc3[nH]2)C1 [pinometostat]
Procedure, shortened: as §1

[19] = compound: CC1=C(C2=C(C=C1)C(=O)C3=CC=CC=C3N2CCCN)C
Procedure, shortened: as §1

[20] = compound: CC1=C(C(CC(=O)N1)C2=CC=C(C=C2)C(F)(F)F)C(=O)NC3=C(C=C4C(=C3)C=NN4)F
Procedure, shortened: as §1

Target | log2 fold change [1] | log2 fold change [2] | log2 fold change [3] | log2 fold change [4] | log2 fold change [5] | log2 fold change [6] | log2 fold change [7] | log2 fold change [8] | log2 fold change [9] | log2 fold change [10] | log2 fold change [11] | log2 fold change [12] | log2 fold change [13] | log2 fold change [14] | log2 fold change [15] | log2 fold change [16] | log2 fold change [17] | log2 fold change [18] | log2 fold change [19] | log2 fold change [20]
FDXR isoform 7 (UniProt P22570) | inactive: 0.092 | inactive: 0.033 | inactive: 0.109 | inactive: -0.126 | inactive: 0.076 | inactive: -0.13 | inactive: 0.064 | inactive: 0 | inactive: 0.025 | inactive: 0.019 | inactive: 0.031 | inactive: 0.046 | inactive: -0.086 | inactive: -0.015 | active: -0.27 | inactive: -0.091 | inactive: 0.015 | inactive: -0.024 | inactive: 0.125 | –
FHL3 (UniProt Q13643) | inactive: 0.068 | inactive: 0.014 | inactive: 0.025 | inactive: 0.001 | inactive: 0.007 | inactive: 0.032 | inactive: -0.026 | inactive: -0.029 | inactive: 0.034 | inactive: 0.023 | inactive: 0.034 | inactive: 0.057 | inactive: 0.023 | inactive: -0.035 | inactive: 0.017 | inactive: 0.073 | inactive: 0.006 | inactive: -0.04 | inactive: -0.032 | inactive: 0.036
FLVCR1 (UniProt Q9Y5Y0) | inactive: -0.044 | inactive: 0.089 | inactive: 0.025 | inactive: -0.003 | inactive: 0.064 | inactive: 0.024 | inactive: -0.056 | inactive: 0.03 | inactive: -0.04 | inactive: 0.017 | inactive: -0.01 | inactive: -0.012 | inactive: -0.086 | inactive: -0.073 | inactive: 0.006 | inactive: 0.138 | inactive: 0.035 | inactive: 0.017 | inactive: 0.06 | inactive: 0.075
FKBPL (UniProt Q9UIM3) | inactive: -0.015 | inactive: 0.014 | inactive: 0.008 | inactive: 0.025 | inactive: 0.015 | inactive: 0.013 | inactive: 0.018 | inactive: -0.006 | inactive: -0.035 | inactive: 0.015 | inactive: -0.002 | inactive: 0.015 | inactive: 0 | inactive: -0.056 | inactive: -0.058 | inactive: 0.018 | inactive: 0.008 | inactive: 0 | inactive: 0.026 | inactive: -0.071
FECH isoform 2 (UniProt P22830) | inactive: 0.191 | inactive: -0.179 | inactive: 0.349 | inactive: 0.206 | inactive: 0.162 | inactive: 0.048 | inactive: 0.429 | inactive: 0.135 | inactive: 0.172 | inactive: 0.046 | inactive: 0.408 | inactive: 0.082 | inactive: 0.129 | inactive: 0.159 | inactive: 0.426 | active: -0.691 | inactive: -0.144 | inactive: -0.098 | inactive: 0.514 | –
FIS1 (UniProt Q9Y3D6) | inactive: 0.013 | inactive: 0.066 | inactive: 0.015 | inactive: 0.01 | inactive: -0.034 | inactive: 0.024 | inactive: -0.025 | inactive: 0.02 | inactive: -0.06 | inactive: 0.09 | inactive: 0.029 | inactive: 0.003 | inactive: 0.067 | inactive: -0.036 | inactive: 0.029 | inactive: -0.023 | inactive: -0.025 | inactive: -0.074 | inactive: -0.031 | –
FAM210A (UniProt Q96ND0) | inactive: 0.072 | inactive: -0.054 | inactive: -0.058 | inactive: 0.013 | inactive: 0.012 | inactive: -0.015 | inactive: 0.017 | inactive: -0.008 | inactive: -0.015 | inactive: -0.01 | inactive: 0.041 | inactive: 0.072 | inactive: -0.021 | inactive: -0.045 | inactive: 0.006 | inactive: 0.078 | inactive: -0.002 | inactive: -0.029 | inactive: -0.067 | inactive: -0.015
FBXO22 (UniProt Q8NEZ5) | inactive: 0 | inactive: 0.053 | inactive: 0.019 | inactive: 0.014 | inactive: 0.123 | inactive: 0.005 | inactive: 0.012 | inactive: 0.055 | inactive: -0.047 | inactive: -0.006 | inactive: 0.016 | inactive: 0.054 | inactive: -0.025 | inactive: -0.029 | inactive: -0.017 | inactive: 0.042 | inactive: 0.034 | inactive: -0.016 | inactive: 0.182 | inactive: -0.019
FAR1 (UniProt Q8WVX9) | inactive: 0.059 | inactive: 0.1 | inactive: 0.057 | inactive: 0.004 | inactive: -0.014 | inactive: 0.065 | inactive: -0.073 | inactive: 0.006 | inactive: -0.016 | inactive: 0.056 | inactive: -0.014 | inactive: -0.011 | inactive: -0.011 | inactive: -0.052 | inactive: -0.036 | inactive: -0.098 | inactive: 0.112 | inactive: -0.023 | inactive: 0.029 | inactive: -0.019
FBXW9 (UniProt Q5XUX1) | inactive: 0.024 | inactive: 0.069 | inactive: 0.017 | inactive: 0.006 | inactive: -0.052 | inactive: -0.019 | inactive: -0.015 | inactive: 0.012 | inactive: -0.094 | inactive: 0.08 | inactive: 0.012 | inactive: 0.013 | inactive: -0.041 | inactive: -0.021 | inactive: -0.035 | inactive: -0.004 | inactive: 0.011 | inactive: -0.005 | inactive: 0.038 | inactive: 0.105
FH (UniProt P07954) | inactive: -0.015 | inactive: 0.036 | inactive: 0.044 | inactive: -0.01 | inactive: 0.026 | inactive: 0.073 | inactive: 0.039 | inactive: 0 | inactive: 0.02 | inactive: 0.015 | inactive: 0.028 | inactive: -0.025 | inactive: -0.045 | inactive: -0.027 | inactive: -0.037 | inactive: -0.023 | inactive: -0.051 | inactive: -0.018 | inactive: -0.006 | inactive: -0.035
FGB (UniProt P02675) | inactive: -0.047 | inactive: -0.062 | – | inactive: 0.12 | inactive: 0.146 | inactive: -0.031 | inactive: -0.138 | inactive: -0.019 | inactive: 0.077 | inactive: 0.132 | – | inactive: 0.282 | inactive: 0.078 | inactive: -0.232 | – | inactive: 0.09 | inactive: 0.071 | – | inactive: -0.109 | inactive: 0.233
FAM222B (UniProt Q8WU58) | inactive: 0.169 | inactive: -0.166 | inactive: 0.186 | inactive: -0.125 | inactive: -0.196 | – | inactive: -0.271 | inactive: 0.426 | inactive: 0.077 | inactive: -0.106 | – | – | inactive: 0.04 | inactive: 0.138 | inactive: -0.011 | inactive: 0.011 | inactive: 0.017 | – | inactive: 0.286 | –
FHL1 isoform 4 (UniProt Q13642) | inactive: -0.045 | inactive: -0.144 | inactive: -0.215 | inactive: 0.047 | inactive: 0.253 | inactive: 0.085 | – | inactive: -0.079 | inactive: -0.001 | inactive: 0.059 | – | inactive: -0.074 | inactive: -0.098 | – | inactive: 0.156 | inactive: 0.117 | – | – | inactive: -0.089 | inactive: 0.398
FCHSD1 (UniProt Q86WN1) | inactive: -0.06 | inactive: -0.035 | inactive: -0.128 | inactive: -0.161 | inactive: 0.043 | – | inactive: -0.043 | inactive: 0.063 | – | – | inactive: -0.012 | – | inactive: -0.019 | inactive: 0.025 | inactive: -0.047 | inactive: -0.012 | inactive: -0.087 | inactive: 0.108 | – | –
FIBP (UniProt O43427) | inactive: 0.023 | inactive: 0.088 | inactive: 0.011 | inactive: -0.002 | inactive: 0.107 | inactive: -0.023 | inactive: -0.032 | inactive: 0.011 | inactive: -0.144 | inactive: 0.125 | inactive: 0.026 | inactive: 0.019 | inactive: -0.146 | inactive: 0.041 | inactive: -0.143 | inactive: 0.018 | inactive: 0.065 | inactive: 0.075 | inactive: -0.039 | –
FKBP14 (UniProt Q9NWM8) | inactive: -0.266 | inactive: -0.058 | inactive: -0.045 | inactive: -0.083 | inactive: 0.032 | inactive: 0.044 | inactive: -0.002 | inactive: 0 | inactive: -0.01 | inactive: 0.041 | – | inactive: -0.021 | inactive: 0.002 | inactive: 0.01 | inactive: 0.074 | inactive: 0.03 | inactive: -0.055 | – | inactive: 0.037 | inactive: 0.092

Given tab-delimited: entries from further up.
Target	log2 fold change [1]	log2 fold change [2]	log2 fold change [3]	log2 fold change [4]	log2 fold change [5]	log2 fold change [6]	log2 fold change [7]	log2 fold change [8]	log2 fold change [9]	log2 fold change [10]	log2 fold change [11]	log2 fold change [12]	log2 fold change [13]	log2 fold change [14]	log2 fold change [15]	log2 fold change [16]	log2 fold change [17]	log2 fold change [18]	log2 fold change [19]	log2 fold change [20]
FAM222B (UniProt Q8WU58)	inactive: 0.169	inactive: -0.166	inactive: 0.186	inactive: -0.125	inactive: -0.196	–	inactive: -0.271	inactive: 0.426	inactive: 0.077	inactive: -0.106	–	–	inactive: 0.04	inactive: 0.138	inactive: -0.011	inactive: 0.011	inactive: 0.017	–	inactive: 0.286	–
FHL1 isoform 4 (UniProt Q13642)	inactive: -0.045	inactive: -0.144	inactive: -0.215	inactive: 0.047	inactive: 0.253	inactive: 0.085	–	inactive: -0.079	inactive: -0.001	inactive: 0.059	–	inactive: -0.074	inactive: -0.098	–	inactive: 0.156	inactive: 0.117	–	–	inactive: -0.089	inactive: 0.398

— the supplement of paper PMC10849652
